# Source: PubChem BioAssay (Tox21)
# The chains behind the UniProt entries cited, without tags or fusion partners. Where a name states a change or a piece, a line headed by the entry shows the natural chain unless it says otherwise.
# UniProt P30968: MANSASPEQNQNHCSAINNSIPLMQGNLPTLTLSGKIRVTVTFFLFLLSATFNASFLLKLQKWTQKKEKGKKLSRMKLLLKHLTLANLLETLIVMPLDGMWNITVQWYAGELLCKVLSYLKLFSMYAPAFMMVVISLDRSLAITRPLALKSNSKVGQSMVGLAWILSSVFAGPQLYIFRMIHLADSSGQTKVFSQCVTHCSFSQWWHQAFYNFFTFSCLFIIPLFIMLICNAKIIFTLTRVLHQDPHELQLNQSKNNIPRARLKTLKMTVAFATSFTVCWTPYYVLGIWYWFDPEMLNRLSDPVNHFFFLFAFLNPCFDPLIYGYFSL
# UniProt P28223, whole entry, looked up: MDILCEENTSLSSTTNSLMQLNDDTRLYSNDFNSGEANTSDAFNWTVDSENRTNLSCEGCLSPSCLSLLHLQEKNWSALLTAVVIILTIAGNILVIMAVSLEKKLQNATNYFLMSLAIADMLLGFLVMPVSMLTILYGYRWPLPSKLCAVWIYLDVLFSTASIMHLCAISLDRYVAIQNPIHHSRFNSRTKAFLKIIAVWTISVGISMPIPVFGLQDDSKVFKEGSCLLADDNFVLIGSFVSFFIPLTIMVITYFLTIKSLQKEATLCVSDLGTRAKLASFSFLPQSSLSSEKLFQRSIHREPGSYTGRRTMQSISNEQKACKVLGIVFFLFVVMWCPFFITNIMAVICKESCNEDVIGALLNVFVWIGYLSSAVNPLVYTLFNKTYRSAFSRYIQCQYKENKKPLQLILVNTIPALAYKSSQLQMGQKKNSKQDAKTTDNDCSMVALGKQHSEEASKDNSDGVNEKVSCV
# UniProt P14416, whole entry, looked up: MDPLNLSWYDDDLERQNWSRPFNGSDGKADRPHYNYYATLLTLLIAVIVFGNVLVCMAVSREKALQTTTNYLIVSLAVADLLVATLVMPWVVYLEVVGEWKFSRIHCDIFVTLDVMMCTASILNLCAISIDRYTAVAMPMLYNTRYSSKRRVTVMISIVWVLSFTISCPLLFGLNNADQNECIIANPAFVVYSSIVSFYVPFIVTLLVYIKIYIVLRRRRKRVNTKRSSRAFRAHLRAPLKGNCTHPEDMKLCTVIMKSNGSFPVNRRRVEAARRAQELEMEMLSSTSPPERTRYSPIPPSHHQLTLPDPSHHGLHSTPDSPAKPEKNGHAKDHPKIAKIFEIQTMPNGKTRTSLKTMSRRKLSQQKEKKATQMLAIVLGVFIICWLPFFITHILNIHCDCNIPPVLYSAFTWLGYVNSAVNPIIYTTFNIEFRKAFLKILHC
# UniProt P11229: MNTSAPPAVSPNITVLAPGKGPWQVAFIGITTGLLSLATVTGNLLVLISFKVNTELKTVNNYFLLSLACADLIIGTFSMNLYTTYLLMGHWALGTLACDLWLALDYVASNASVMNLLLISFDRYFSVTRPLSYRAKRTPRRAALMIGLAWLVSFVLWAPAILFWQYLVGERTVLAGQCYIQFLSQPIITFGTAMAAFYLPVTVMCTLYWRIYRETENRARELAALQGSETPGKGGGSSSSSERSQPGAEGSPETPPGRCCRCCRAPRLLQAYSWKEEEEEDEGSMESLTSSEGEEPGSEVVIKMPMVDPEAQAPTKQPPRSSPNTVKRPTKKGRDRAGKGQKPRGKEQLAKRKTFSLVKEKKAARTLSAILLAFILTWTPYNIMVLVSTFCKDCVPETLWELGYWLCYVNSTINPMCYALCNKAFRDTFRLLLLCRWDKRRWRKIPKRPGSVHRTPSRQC
# Several values for one entry are separate records, joined by “and”; a condition that tells them apart may be missing. Equal entries are not always repeated. This list was built around the results that the source calls inconclusive (neither active nor inactive); the mix of calls is not that of the screen. For some assays here: Potencies of inconclusive entries are doubtful fits and often do not repeat. Activity calls are given as the source filed them. Unless noted, calls come from the whole dose curve.
# What was measured:
# [1] = Nuclear factor erythroid 2-related factor 2/antioxidant responsive element (Nrf2/ARE) small molecule agonists: luciferase reporter gene qHTS assay in human keratinocytes (AID 1919969); conditions: KeratinoSens HaCaT ARE-luciferase, luminescence, 24 h; series mostly up to 92.4 µM; note: nearly all actives have a fitted effect of over 35% in size; note: potency is the fitted concentration of half-maximal effect
# [2] = Nuclear factor erythroid 2-related factor 2/antioxidant responsive element (Nrf2/ARE) small molecule agonists: qHTS cell viability counter screen in human keratinocytes (AID 1919968; active = well fitted cell-killing curve with a large enough effect in the repeat runs; inconclusive = weak or mixed curves, or effect the other way; note: nearly all actives have a fitted effect of over 55% in size; note: potency is the fitted concentration of half-maximal effect); conditions: KeratinoSens HaCaT ARE cells viability, CellTiter-Fluor, 24 h; series mostly up to 92.4 µM
# In short: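 Cytotoxicity was multiplexed with the Nrf2/ARE luciferase assay in the same wells. Stably transfected HaCaT keratinocytes were treated with test compounds for 23 h at 37 C. Cell viability was then measured by CellTiter-Fluor fluorescence.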
# [3] = biological target: Beta-2 adrenergic receptor (Homo sapiens) (UniProt P07550); assay: Adrenergic beta2 receptor (ADRB2) small molecule agonists, cell-based qHTS assay (AID 1963593); conditions: CHO-ADRB2 cells, cAMP HTRF, 30 min; activation: at 92.4 µM (top of the series) unless noted; note: potency is the fitted concentration of half-maximal effect;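 for activation: CHO cells stably overexpressing human ADRB2; % is set by controls: 0 for no effect and ±100 for the full control effect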
# In short: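 CHO cells stably over-expressing ADRB2 were plated overnight at 37C, then dosed with compounds plus a stimulation mix containing 100uM IBMX and 25uM Ro-20-1724 for 0.5hr at room temperature. cAMP was measured by HTRF competition, 1hr.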
# [4] = biological target: Gonadotropin-releasing hormone receptor (Homo sapiens) (UniProt P30968); assay: Human gonadotropin-releasing hormone receptor (GnRHR) small molecule agonists, calcium flux assay in GnRHR-HEK293 cells (AID 1920063); conditions: calcium flux fluorescence, agonist mode; activity change: at 57.6 µM (top of the series), stronger effect = higher value unless noted; note: nearly all actives have a fitted effect of over 35% in size; note: potency is the fitted concentration of half-maximal effect; for activity change: % is set by controls: 0 for no effect and ±100 for the full control effect
# In short: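 Agonist activity was measured as intracellular calcium flux in HEK293 cells engineered to stably express human GnRHR. After dye loading for 1 hour at 37 C, compounds in DMSO were added and fluorescence was followed for 3 minutes.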
# [5] = G protein-coupled receptor (GPCR) small molecule agonists, calcium flux assay: HEK293 wild type cell line counter screen (AID 1920065); conditions: HEK293 WT calcium flux, fluorescence, agonist mode; series mostly up to 57.6 µM; note: potency is the fitted concentration of half-maximal effect
# In short: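 Seed cells, incubate 18 h (37 C, 5% CO2); add calcium dye, 1 h at 37 C; pin-transfer compounds, ATP control or DMSO; read fluorescence 480/540 nm each second for 3 min.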
# [6] = p53 small molecule agonists, cell-based qHTS assay with human liver microsomes (AID 1963577); conditions: HCT-116 p53RE-bla with human liver microsomes, ratio, 16 h; activation: at 66 µM (top of the series) unless noted; note: potency is the fitted concentration of half-maximal effect
# In short: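 Reporter activation was measured by LiveBLAzer fluorescence intensity in p53RE-bla cells, which had been exposed to compounds for 16 h at 37 C alongside 0.5 mg/mL human liver microsomes and 0.5 mg/mL NADPH (final concentrations).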
# [7] = p53 small molecule agonists, cell-based qHTS assay with human liver microsomes: qHTS cell viability counter screen (AID 1963579); conditions: p53RE-bla HCT-116 viability, ATP luminescence, 16 h, HLM; series mostly up to 66 µM; note: potency is the fitted concentration of half-maximal effect; nearly all actives have a fitted effect of over 45% in size
# In short: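 HLM-supplemented (0.5 mg/mL final) and NADPH-supplemented (0.5 mg/mL final) p53RE-bla cultures, 4,000 cells per well, were dosed with compounds in DMSO for 16 h at 37 C; luminescent ATP detection (CellTiter-Glo, 30 min, room temperature) quantified surviving cells.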
# [8] = p53 small molecule agonists, cell-based qHTS assay with rat liver microsomes: qHTS cell viability counter screen (AID 1963580); conditions: p53RE-bla HCT-116 + rat microsomes, ATP viability, 16 h; series mostly up to 66 µM; note: potency is the fitted concentration of half-maximal effect; nearly all actives have a fitted effect of over 45% in size
# In short: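 Cytotoxicity counter screen: intracellular ATP read by CellTiter-Glo luminescence in the p53 reporter wells. HCT-116 p53RE-bla cells were treated for 16 h at 37 C alongside rat liver microsomes and NADPH, each 0.5 mg/mL final.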
# [9] = p53 small molecule agonists, cell-based qHTS assay: qHTS cell viability counter screen (AID 1963581); conditions: p53RE-bla HCT-116 viability, ATP luminescence, 16 h; series mostly up to 66 µM; note: potency is the fitted concentration of half-maximal effect; nearly all actives have a fitted effect of over 45% in size
# In short: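 Viability was counter-screened in parallel with the p53 agonist reporter by measuring intracellular ATP luminescence in the same HCT-116 p53RE-bla wells after 16 h compound treatment at 37 C.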
# [10] = p53 small molecule agonists, cell-based qHTS assay (AID 1963582; active = well fitted activation curve with a large enough effect in the signal ratio in the repeat runs, not every such curve was filed as active; inconclusive = weak or mixed curves; the % refers to the signal ratio; note: potency is the fitted concentration of half-maximal effect); conditions: HCT-116 p53RE-bla reporter, beta-lactamase FRET ratio, 16 h; activation: at 66 µM (top of the series) unless noted
# In short: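 Cells carrying a p53-responsive bla reporter are treated with test compounds for 16 h at 37 C; beta-lactamase activity is then detected with LiveBLAzer B/G FRET substrate after 2 h at room temperature.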
# [11] = biological target: 5-hydroxytryptamine receptor 2A (Homo sapiens) (UniProt P28223); assay: 5-hydroxytryptamine receptor 2A (HTR2A) small molecule antagonists, cell-based qHTS assay (AID 1963586); conditions: HTR2A-CHO cells, DOI-induced calcium flux, fluorescence; series mostly up to 61.5 µM; note: potency is the fitted concentration of half-maximal effect; nearly all actives have a fitted effect of over 45% in size
# In short: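 CHO cells stably expressing human HTR2A were plated for 18 h at 37 C, then loaded with calcium dye for 1 h. Compounds were preincubated 5 min at room temperature before DOI (4 nM solution) was added. Kinetic fluorescence was read for 3 min.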
# [12] = cAMP Responsive Elements (CRE) small molecule agonists, cell-based qHTS assay (AID 1963590); conditions: CRE-bla HEK293T, beta-lactamase FRET ratio, 3 h; activation: at 92.4 µM (top of the series) unless noted; note: potency is the fitted concentration of half-maximal effect
# In short: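 Cells carrying a CRE-driven beta-lactamase reporter (HEK 293T) are seeded, incubated overnight (18 h), and treated with test compounds for 3 h at 37 C; reporter activity is then detected with a FRET substrate after 2 h at room temperature.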
# [13] = biological target: Beta-2 adrenergic receptor (Homo sapiens) (UniProt P07550); assay: Adrenergic beta2 receptor (ADRB2) small molecule antagonists, cell-based qHTS assay (AID 1963592); conditions: CHO-ADRB2 cells, isoproterenol-stimulated cAMP HTRF ratio, 0.5 h; activity change, negative = inhibition: at 92.4 µM (top of the series) unless noted; note: nearly all actives have a fitted effect of over 50% in size; note: potency is the fitted concentration of half-maximal effect; for activity change, negative = inhibition: % is set by controls: 0 for no effect and ±100 for the full control effect
# In short: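 Assay format: CHO-ADRB2 cells, 18-20hr seeding at 37C/5% CO2, then compound plus 1nM isoproterenol agonist mix for 0.5hr RT. Homogeneous time-resolved fluorescence cAMP detection after 1hr, expressed as 665/615 nm ratio.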
# [14] = biological target: D(2) dopamine receptor (Homo sapiens) (UniProt P14416); assay: Dopamine D2 receptor (DRD2) small molecule antagonists, cell-based qHTS assay (AID 1963595; active = well fitted inhibition curve with a large enough effect in the signal ratio in the repeat runs, with a control signal flat; inconclusive = weak or mixed curves, or effect the other way; the % refers to the signal ratio; note: potency is the fitted concentration of half-maximal effect); conditions: HEK293-DRD2 cAMP HTRF antagonist mode; activity change, negative = inhibition: at 92.4 µM (top of the series) unless noted
# In short: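 Stable D2 receptor HEK293 line, 24 h after seeding. Compound preincubated 10 min, then quinpirole (12 nM) with forskolin analogue NKH477 (200 nM), 30 min, room temperature. Detection by time-resolved FRET of cAMP.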
# [15] = biological target: Muscarinic acetylcholine receptor M1 (Homo sapiens) (UniProt P11229); assay: Cholinergic receptor muscarinic 1 (CHRM1) small molecule antagonists, cell-based qHTS assay (AID 1963588); conditions: CHRM1-CHO antagonist mode, calcium flux fluorescence; series mostly up to 61.5 µM; note: potency is the fitted concentration of half-maximal effect; nearly all actives have a fitted effect of over 40% in size
# In short: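 Compounds were tested at 15 concentrations in three independent runs. Dye-loaded CHRM1-CHO cells were exposed 5 min at room temperature before stimulation by acetylcholine added at 50nM. Intracellular calcium was read kinetically on FDSS for 3 min.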
# [16] = cAMP Responsive Elements (CRE) small molecule antagonists, cell-based qHTS assay (AID 1963591; active = well fitted inhibition curve with a large enough effect in the signal ratio in the repeat runs, not every such curve was filed as active; inconclusive = weak or mixed curves, or effect the other way; the % refers to the signal ratio; note: % is set by controls: 0 for no effect and ±100 for the full control effect); conditions: CRE-bla HEK293T, beta-lactamase FRET ratio; activity change, negative = inhibition: at 92.4 µM (top of the series) unless noted
# In short: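 Cells (CRE-bla HEK 293T, DMEM with 10% dialyzed FBS and 25 mM HEPES) are seeded and incubated 18 h. Compounds are added with NKH477 agonist at 0.25 uM final for 3 h, then FRET substrate for 2 h.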
# [17] = biological target: D(2) dopamine receptor (Homo sapiens) (UniProt P14416); assay: Dopamine D2 receptor (DRD2) small molecule agonists, cell-based qHTS assay (AID 1963594); conditions: HEK293-DRD2 cAMP HTRF, agonist mode, 30 min; activation: at 92.4 µM (top of the series) unless noted; note: % is set by controls: 0 for no effect and ±100 for the full control effect; nearly all actives have a fitted effect of over 35% in size
# In short: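 cAMP accumulation in DRD2-HEK293 cells measured by HTRF after 1 h detection; compounds added 10 min before NKH477 (200nM […]) forskolin-analogue stimulation, 30 min at room temperature, with Ro20-1724 present at 0.1 mM final.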
smiles,measurement,setting,value
Cc1cc(C)c(C2=C(OC(=O)CC(C)(C)C)C3(CCCC3)OC2=O)c(C)c1,Potency,[1],inconclusive: 71.8 µM [activator]
CCS(=O)(=O)c1cccnc1S(=O)(=O)NC(=O)Nc1nc(OC)cc(OC)n1,Potency,[1],"inconclusive: 30.6 µM [activator, partial curve]"
CCNS(=O)(=O)C(F)(F)C(F)(F)C(F)(F)C(F)(F)C(F)(F)C(F)(F)C(F)(F)C(F)(F)F,Potency,[2],"inconclusive: 65.7 µM [cytotoxic, single point]"
same,Potency,[3],inactive
CC(=O)[O][Hg][c]1ccccc1,Potency,[1],"inconclusive: 0.54 µM [activator, single point]"
same,Potency,[4],"active: 34.4 µM and active: 24.5 µM and inconclusive: 19 µM [activator, single point]"
same,Potency,[5],"inconclusive: 43.6 µM [activator, partial curve, poor fit]"
same,Potency,[6],inconclusive: 10.2 µM
same,Potency,[7],"inconclusive: 12.6 µM [cytotoxic, partial curve, poor fit]"
same,Potency,[8],active: 3.6 µM and active: 5.76 µM and active: 11.2 µM
same,Potency,[9],active: 1.61 µM and active: 4.08 µM and active: 5 µM
same,Potency,[10],"inconclusive: 2.86 µM [falling, full curve] and inconclusive: 5.76 µM [falling, full curve] and inconclusive: 8.9 µM [falling, full curve]"
same,Potency,[11],"inconclusive: 18.6 µM [inhibitor, single point]"
same,Potency,[12],"inconclusive: 4.29 µM [fluorescent, full curve] and inconclusive: 8.63 µM [fluorescent] and inconclusive: 13.3 µM [fluorescent, full curve]"
same,Potency,[13],"inconclusive: 68 µM [inhibitor, single point] and inconclusive: 1.5 µM [activator, full curve, poor fit]"
same,"activity change, negative = inhibition",[13],inconclusive: -108%
same,Potency,[3],inconclusive: 76.3 µM [inhibitor] and inconclusive: 68.6 µM [inhibitor] and active: 4.73 µM
same,Potency,[14],active: 6.06 µM and active: 2.73 µM and active: 5.96 µM
CC1CCCC1,Potency,[1],"inconclusive: 67.5 µM [activator, single point]"
Cc1cc(=O)[nH]o1,Potency,[1],"inconclusive: 94.3 µM [activator, partial curve, poor fit]"
C=C(C)C(=O)OCCCCOC(=O)C(=C)C,Potency,[2],inactive
same,Potency,[3],inactive
c1ccc2c(c1)CCNC2,Potency,[2],inactive
same,Potency,[3],"inconclusive: 28 µM [inhibitor, single point]"
O=C(NC(=O)c1c(F)cccc1F)Nc1cc(Cl)c(OC(F)(F)C(F)C(F)(F)F)cc1Cl (stereo unspecified),Potency,[1],"inconclusive: 33.5 µM [activator, single point]"
same,Potency,[4],inactive
same,Potency,[7],"inconclusive: 5.61 µM [rising, partial curve]"
same,Potency,[10],"inconclusive: 16.2 µM [rising, full curve, poor fit]"
same,Potency,[15],"inconclusive: 20.5 µM [inhibitor, partial curve, poor fit]"
same,"activity change, negative = inhibition",[16],inconclusive: -5.46%
same,Potency,[3],"inactive and inconclusive: 33.5 µM [activator, single point]"
same,activation,[17],inconclusive: -22.6%
same,Potency,[14],"inconclusive: 27.3 µM [inhibitor] and inconclusive: 33.5 µM [inhibitor, single point]"
CC(=O)OC(c1ccccc1)C(Cl)(Cl)Cl (stereo unspecified),Potency,[1],"inconclusive: 61.1 µM [activator, partial curve, poor fit]"
same,Potency,[4],inactive
same,Potency,[10],inactive
same,Potency,[12],inactive
CN[C@@H](C)[C@H](O)c1ccccc1,Potency,[2],"inconclusive: 33.5 µM [rising, single point]"
same,Potency,[3],inactive
O=S(=O)(C(Cl)(Cl)Cl)C(Cl)(Cl)Cl,Potency,[1],active: 8.63 µM
same,Potency,[4],"inconclusive: 43.6 µM [activator, single point]"
same,Potency,[10],inconclusive: 16.2 µM [fluorescent]
same,Potency,[11],"inconclusive: 47.2 µM [inhibitor, single point]"
same,Potency,[12],inconclusive: 61.1 µM
same,Potency,[3],inactive
same,activation,[17],inconclusive: 14%
Cl/C=C\C[N+]12CN3CN(CN(C3)C1)C2,Potency,[1],active: 68.6 µM
NC(=O)c1cc([N+](=O)[O-])cc([N+](=O)[O-])c1,Potency,[2],inactive
same,Potency,[3],inactive
CN(C)CCc1ccc(O)cc1,Potency,[1],inactive
CN(C)P(=O)(N(C)C)N(C)C,Potency,[1],inactive
CCCCN(CCCC)C(=S)[S-].CCCCN(CCCC)C(=S)[S-].[Ni+2],Potency,[2],active: 8.42 µM
same,Potency,[3],inactive
CC(C)(N)Cc1ccccc1Cl,Potency,[1],inactive
O=P(O)(Oc1ccccc1)Oc1ccccc1,Potency,[1],inactive
N#CCC#N,Potency,[1],active: 61.1 µM

# Another view of some results above.
smiles	measurement	setting	value
CCNS(=O)(=O)C(F)(F)C(F)(F)C(F)(F)C(F)(F)C(F)(F)C(F)(F)C(F)(F)C(F)(F)F	Potency	[2]	inconclusive: 65.7 µM [cytotoxic, single point]
same	Potency	[3]	inactive
CC(=O)[O][Hg][c]1ccccc1	Potency	[1]	inconclusive: 0.54 µM [activator, single point]
